Hit rate of the full screen: of about 330,000 compounds, about 7,700 (2.3%) were called active. Inconclusive results, whose numbers are uncertain, are shown with a selection of clear calls. The call rests on the fitted dose curve; in most records, active means well fitted inhibition curve with a large enough effect; inconclusive means small, poorly fitted or top-dose-only effect, or effect the other way; inactive means flat fitted curve, though single readings scatter. Where the call is inconclusive, the potency comes from a doubtful curve fit.
Assay: qHTS screen for small molecules that inhibit ELG1-dependent DNA repair in human embryonic kidney (HEK293T) cells expressing luciferase-tagged ELG1; further: nearly all actives have a fitted effect of over 55% in size
Conditions: HEK293T ELG1-luciferase reporter, luminescence, 16 h, DNA damage induced by 5-fluorouridine; activity change, negative = inhibition: at 46.1 µM (top of the series)
Outline: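 In this reporter screen, reduction of luminescence relative to DMSO vehicle indicated activity. Compounds and 5-fluorouridine were added together to 2,000 cells per well, incubated for 16 hr at 37 °C, then developed with ONE-Glo.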
On the % scale 0 is the no-effect control and ±100 the full control effect; potency means the concentration at half of the fitted maximal effect.

SMILES	Potency	activity change, negative = inhibition
Cc1ccsc1C(=O)NC(C)c1ccccc1 (centres undefined)	inconclusive: 18.3 µM [activator, partial curve, poor fit]	–
Cc1cnc(NC(=O)c2cc3c(s2)CCCC3)s1	inconclusive: 0.411 µM [activator, full curve]	–
COc1ccc(/C=N/NC(=O)c2[nH]ncc2Br)c(OC)c1	inconclusive: 16.4 µM [activator, partial curve]	–
NC(=O)C1CCN(S(=O)(=O)Cc2ccccc2Cl)CC1	–	inactive: 9.15%
CC(C)(C)C1CCc2onc(C(=O)NCc3ccc(F)cc3)c2C1 (centres undefined)	inconclusive: 18.4 µM [inhibitor, single point]	–
O=C(Nc1ccc(N2CCN(C(=O)c3ccccc3)CC2)cc1)c1cc([N+](=O)[O-])ccc1N1CCOCC1	–	inactive: -1.55%
COc1ccc(NC(=S)N2CCN(c3ccc([N+](=O)[O-])cc3)CC2)cc1OC	active: 13 µM	–
Cc1ccc(-n2ncc3c(=O)n(CC(=O)N4CCN(c5ccccc5F)CC4)cnc32)cc1C	–	inactive: 7.83%
CCCCC(=O)Nc1ccc(C(=O)NNC(=S)NC(=O)c2ccco2)cc1	inconclusive: 23.1 µM [inhibitor, partial curve]	–
CC12CCC(=O)N1C(C(=O)NNC(=O)COc1cccc(C(F)(F)F)c1)CS2 (centres undefined)	–	inactive: 10.1%
c1coc(-c2nc3nc4ccccc4nc3n2CC2CCCO2)c1 (centres undefined)	inconclusive: 29.1 µM [inhibitor, single point]	–
CCN(CC(=O)Nc1ccccc1OC)Cc1csc(CC(=O)Nc2ccc(C)cc2)n1	active: 9.2 µM	–
N=c1n(CCCOc2ccccc2Cl)c2ccccc2n1CC(N)=O	inconclusive: 29.1 µM [activator, single point]	–
Cc1cc(C)cc(NC(=O)C(OC(=O)Cn2cnc3c2c(=O)n(C)c(=O)n3C)c2ccccc2)c1 (centres undefined)	inconclusive: 0.517 µM [activator, partial curve, poor fit]	–
O=C(CCC(=O)c1cccs1)Nc1ccccc1F	inconclusive: 29.1 µM [activator, single point]	–
CN(CC(=O)Nc1cccc(F)c1)C(=O)c1cc(-c2ccco2)nc2ccccc12	inconclusive: 29.1 µM [inhibitor, single point]	–
COc1ccc(CCNc2cc(C)nc3c(-c4ccccc4OC)cnn23)cc1OC	inconclusive: 32.6 µM [inhibitor, single point]	–
O=C(COc1ccccc1Cl)NCc1ccco1	inconclusive: 10.3 µM [activator, partial curve, poor fit]	–
Brc1ccc(C2CC(c3ccccc3)=Nc3ccccc3N2)cc1 (centres undefined)	inconclusive: 20.6 µM [activator, partial curve]	–

3 structures already listed, arranged by number of heavy atoms, smallest number first.
SMILES	Potency	activity change, negative = inhibition
Cc1ccsc1C(=O)NC(C)c1ccccc1 (centres undefined)	inconclusive: 18.3 µM [activator, partial curve, poor fit]	–
Cc1cnc(NC(=O)c2cc3c(s2)CCCC3)s1	inconclusive: 0.411 µM [activator, full curve]	–
c1coc(-c2nc3nc4ccccc4nc3n2CC2CCCO2)c1 (centres undefined)	inconclusive: 29.1 µM [inhibitor, single point]	–

Reference: PubChem BioAssay AID504467 (National Center for Advancing Translational Sciences (NCATS), 2011)
